Laboratory results as given in paper PMC7072806.
No constants are given. Whether binding was seen depends on the method and setting. Some results given as binding are weak or reduced against the parent protein; the word gives no strength.

Sequences of proteins named here, by UniProt entry; tags and fusion partners are left off.
UniProt P51682: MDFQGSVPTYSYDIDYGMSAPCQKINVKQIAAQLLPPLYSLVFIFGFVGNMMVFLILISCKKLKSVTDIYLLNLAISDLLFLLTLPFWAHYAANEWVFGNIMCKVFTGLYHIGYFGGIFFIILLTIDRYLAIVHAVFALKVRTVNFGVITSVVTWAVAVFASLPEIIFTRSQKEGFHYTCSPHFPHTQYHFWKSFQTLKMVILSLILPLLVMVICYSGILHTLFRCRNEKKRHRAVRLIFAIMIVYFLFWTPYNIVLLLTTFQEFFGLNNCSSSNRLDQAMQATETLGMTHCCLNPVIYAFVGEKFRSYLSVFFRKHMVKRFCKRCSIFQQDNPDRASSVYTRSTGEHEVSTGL
UniProt Q99KQ4: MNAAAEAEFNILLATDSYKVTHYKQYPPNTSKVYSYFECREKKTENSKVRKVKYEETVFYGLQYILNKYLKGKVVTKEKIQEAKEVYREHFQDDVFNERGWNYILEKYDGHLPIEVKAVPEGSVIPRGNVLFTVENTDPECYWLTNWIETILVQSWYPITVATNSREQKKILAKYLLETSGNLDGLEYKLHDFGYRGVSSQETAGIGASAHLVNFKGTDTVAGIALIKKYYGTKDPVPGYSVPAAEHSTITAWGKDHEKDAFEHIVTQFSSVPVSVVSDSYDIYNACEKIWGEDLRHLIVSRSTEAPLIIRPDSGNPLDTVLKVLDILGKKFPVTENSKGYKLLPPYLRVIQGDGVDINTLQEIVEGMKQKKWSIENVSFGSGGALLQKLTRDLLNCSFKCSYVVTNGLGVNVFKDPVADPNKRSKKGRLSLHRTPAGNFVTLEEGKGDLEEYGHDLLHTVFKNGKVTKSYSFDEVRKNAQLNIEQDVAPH

Molecular target: Murine C-C chemokine receptor type 5 (CCR5) on HeLa-CCR5 cells (murine) (UniProt P51682)
Assay: flow cytometry on cells; HeLa-CCR5 cells in suspension treated with heparinase I and III (1 h, 4 °C), incubated with eNAMPT (125 µg/mL; 2.25 µM) or maraviroc (10 µM) at 4 °C in complete medium for 20 min, then Rantes-PE (25 ng; 16 nM) for 2 h at 4 °C; percentage of Rantes-PE positive cells; only the binder purified

For “Extracellular nicotinamide phosphoribosyltransferase (eNAMPT), wild-type murine full-length, recombinant (from UniProt Q99KQ4 1-491)”, the binding was “binds”.
